Results on one molecule are retold here after patent publication US20140170142A1 (AstraZeneca / MedImmune, published 2014).

The experiment deals with T1, mouse FcRn (mouse, UniProt Q61559 22-297; P01887 21-119, limits assumed).
T1 construct: also called mFcRn
T1 sequence (looked up): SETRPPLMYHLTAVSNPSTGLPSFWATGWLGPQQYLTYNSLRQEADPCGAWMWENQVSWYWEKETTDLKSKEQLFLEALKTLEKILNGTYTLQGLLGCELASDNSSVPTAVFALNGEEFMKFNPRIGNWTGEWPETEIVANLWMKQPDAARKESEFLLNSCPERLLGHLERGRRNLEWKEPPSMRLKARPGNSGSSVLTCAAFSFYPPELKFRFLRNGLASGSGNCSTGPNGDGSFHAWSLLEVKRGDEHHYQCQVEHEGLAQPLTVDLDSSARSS
T1 sequence (b2m, looked up): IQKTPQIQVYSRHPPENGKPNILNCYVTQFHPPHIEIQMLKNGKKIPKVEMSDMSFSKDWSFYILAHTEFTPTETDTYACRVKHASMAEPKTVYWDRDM
Nature of the experiment: SPR (BIAcore 3000), CM5 chip, pH 6.0. In general terms: SPR reads the build-up and loss of mass on a sensor chip optically.

No constants are given. Whether binding was seen depends on the method and setting. Some entries that bind do so weakly or less than the wild type. Where a sequence is shown, tags or fusion partners need not be part of it.

B1: ABD-TM-Fc: triple knockout mutations of ABD residues S18A; T20A and Y21A (Fc fusion)
chain: LAEAKVLANRELDKYGVADAYANLINNAKTVEGVKALIDEILAALPGAEPRGPTIKPCPPCKCPAPNLLGGPSVFIFPPKIKDVLMISLSPIVTCVVVDVSEDDPDVQISWFVNNVEVHTAQTQTHREDYNSTLRVVSALPIQHQDWMSGKEFKCKVNNKDLPAPIERTISKPKGSVRAPQVYVLPPPEEEMTKKQVTLTCMVTDFMPEDIYVEWTNNGKTELNYKNTEPVLDSDGSYFMYSKLRVEKKNWVERNSYSCSVVHEGLHNHHTTKSFSRTPGKGGGGSEQKLISEEDLGGGGSHHHHHH
notes: T20A/Y20A; Y21A)
Take B1: the binding entry was “binds”.
